Measurements as given in the supplement of paper PMC10849652.
The other results are listed elsewhere or left out.

Chains of the proteins cited; added tags and fusions are not shown. Lines headed by an entry give the natural chain unless they say otherwise; changes in a name come on top.
UniProt Q6P1Q0: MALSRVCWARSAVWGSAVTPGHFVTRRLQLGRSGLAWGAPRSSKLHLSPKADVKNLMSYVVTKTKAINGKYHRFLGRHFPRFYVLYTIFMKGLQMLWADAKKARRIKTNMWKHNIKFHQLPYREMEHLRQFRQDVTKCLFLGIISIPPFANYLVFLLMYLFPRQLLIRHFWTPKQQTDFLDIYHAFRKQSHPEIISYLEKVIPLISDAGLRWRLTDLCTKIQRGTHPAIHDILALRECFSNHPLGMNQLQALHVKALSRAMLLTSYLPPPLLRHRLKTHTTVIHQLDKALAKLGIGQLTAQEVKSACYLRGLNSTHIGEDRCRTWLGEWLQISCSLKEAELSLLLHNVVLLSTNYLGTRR
UniProt Q03252: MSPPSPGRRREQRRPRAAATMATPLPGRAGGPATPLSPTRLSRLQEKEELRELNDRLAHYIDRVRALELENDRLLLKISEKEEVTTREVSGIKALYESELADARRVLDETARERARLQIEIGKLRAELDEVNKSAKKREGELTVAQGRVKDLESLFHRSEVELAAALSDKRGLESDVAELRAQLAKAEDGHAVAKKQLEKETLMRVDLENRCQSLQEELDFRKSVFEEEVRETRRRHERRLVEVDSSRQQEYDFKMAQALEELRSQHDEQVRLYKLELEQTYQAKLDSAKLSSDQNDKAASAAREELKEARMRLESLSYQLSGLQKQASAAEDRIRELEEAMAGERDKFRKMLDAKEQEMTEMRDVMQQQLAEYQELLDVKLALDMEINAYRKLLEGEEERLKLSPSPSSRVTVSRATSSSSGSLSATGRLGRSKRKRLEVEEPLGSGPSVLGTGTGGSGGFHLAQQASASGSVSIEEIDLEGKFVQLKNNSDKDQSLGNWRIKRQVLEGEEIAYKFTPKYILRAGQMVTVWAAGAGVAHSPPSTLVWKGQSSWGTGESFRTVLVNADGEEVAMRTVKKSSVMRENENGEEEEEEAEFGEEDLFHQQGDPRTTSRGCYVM
UniProt Q6P9F7: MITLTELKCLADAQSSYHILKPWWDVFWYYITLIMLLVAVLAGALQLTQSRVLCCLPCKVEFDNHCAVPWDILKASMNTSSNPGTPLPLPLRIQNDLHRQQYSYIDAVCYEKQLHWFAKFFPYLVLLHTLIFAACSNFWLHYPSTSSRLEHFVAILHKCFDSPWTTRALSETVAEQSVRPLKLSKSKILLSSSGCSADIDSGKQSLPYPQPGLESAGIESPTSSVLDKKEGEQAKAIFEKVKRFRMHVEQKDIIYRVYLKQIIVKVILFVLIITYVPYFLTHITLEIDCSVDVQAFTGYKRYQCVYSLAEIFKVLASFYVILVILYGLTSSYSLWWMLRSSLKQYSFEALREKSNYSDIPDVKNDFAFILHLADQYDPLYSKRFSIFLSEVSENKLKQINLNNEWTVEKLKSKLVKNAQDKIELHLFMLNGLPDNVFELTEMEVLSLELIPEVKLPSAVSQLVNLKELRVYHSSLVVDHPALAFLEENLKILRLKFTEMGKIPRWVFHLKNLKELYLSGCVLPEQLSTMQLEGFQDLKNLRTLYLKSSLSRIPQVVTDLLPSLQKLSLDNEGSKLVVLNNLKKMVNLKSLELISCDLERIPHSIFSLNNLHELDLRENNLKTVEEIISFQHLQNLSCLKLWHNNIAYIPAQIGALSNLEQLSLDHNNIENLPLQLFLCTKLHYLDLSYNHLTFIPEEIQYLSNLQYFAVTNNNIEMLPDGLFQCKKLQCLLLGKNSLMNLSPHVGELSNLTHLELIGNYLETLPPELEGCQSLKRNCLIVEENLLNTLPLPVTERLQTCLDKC
UniProt P25791: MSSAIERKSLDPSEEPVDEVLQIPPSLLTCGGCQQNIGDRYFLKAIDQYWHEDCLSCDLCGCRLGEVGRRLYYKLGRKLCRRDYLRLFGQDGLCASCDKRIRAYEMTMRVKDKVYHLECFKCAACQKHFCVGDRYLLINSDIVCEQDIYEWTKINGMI
UniProt Q9Y4W2: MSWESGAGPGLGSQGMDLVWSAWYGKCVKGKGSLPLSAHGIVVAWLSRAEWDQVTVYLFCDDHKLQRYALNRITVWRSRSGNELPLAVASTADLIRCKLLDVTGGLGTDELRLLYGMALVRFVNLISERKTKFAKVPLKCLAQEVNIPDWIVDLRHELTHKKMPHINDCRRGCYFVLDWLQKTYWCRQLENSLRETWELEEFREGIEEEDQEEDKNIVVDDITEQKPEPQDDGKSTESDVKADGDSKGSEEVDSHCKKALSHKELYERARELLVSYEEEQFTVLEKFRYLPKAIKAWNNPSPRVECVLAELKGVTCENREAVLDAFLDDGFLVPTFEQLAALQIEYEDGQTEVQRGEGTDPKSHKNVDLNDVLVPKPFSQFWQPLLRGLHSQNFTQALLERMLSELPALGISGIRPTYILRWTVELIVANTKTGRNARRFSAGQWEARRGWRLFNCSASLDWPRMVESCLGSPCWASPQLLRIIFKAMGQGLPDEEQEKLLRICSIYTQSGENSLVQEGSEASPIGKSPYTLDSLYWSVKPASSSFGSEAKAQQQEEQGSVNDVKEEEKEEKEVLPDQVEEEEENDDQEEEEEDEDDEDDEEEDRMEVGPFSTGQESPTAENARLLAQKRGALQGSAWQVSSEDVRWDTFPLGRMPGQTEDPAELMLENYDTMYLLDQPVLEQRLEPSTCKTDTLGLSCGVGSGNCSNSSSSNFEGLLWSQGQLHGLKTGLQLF
UniProt O00214: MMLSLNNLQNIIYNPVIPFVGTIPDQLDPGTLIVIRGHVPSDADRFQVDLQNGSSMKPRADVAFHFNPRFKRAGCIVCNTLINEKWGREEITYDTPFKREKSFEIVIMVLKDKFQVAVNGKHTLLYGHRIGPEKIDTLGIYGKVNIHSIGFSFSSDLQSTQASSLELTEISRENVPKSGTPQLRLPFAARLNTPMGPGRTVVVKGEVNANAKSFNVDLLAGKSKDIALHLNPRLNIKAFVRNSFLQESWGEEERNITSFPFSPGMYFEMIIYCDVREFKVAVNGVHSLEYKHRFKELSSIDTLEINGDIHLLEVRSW
UniProt Q7L1W4: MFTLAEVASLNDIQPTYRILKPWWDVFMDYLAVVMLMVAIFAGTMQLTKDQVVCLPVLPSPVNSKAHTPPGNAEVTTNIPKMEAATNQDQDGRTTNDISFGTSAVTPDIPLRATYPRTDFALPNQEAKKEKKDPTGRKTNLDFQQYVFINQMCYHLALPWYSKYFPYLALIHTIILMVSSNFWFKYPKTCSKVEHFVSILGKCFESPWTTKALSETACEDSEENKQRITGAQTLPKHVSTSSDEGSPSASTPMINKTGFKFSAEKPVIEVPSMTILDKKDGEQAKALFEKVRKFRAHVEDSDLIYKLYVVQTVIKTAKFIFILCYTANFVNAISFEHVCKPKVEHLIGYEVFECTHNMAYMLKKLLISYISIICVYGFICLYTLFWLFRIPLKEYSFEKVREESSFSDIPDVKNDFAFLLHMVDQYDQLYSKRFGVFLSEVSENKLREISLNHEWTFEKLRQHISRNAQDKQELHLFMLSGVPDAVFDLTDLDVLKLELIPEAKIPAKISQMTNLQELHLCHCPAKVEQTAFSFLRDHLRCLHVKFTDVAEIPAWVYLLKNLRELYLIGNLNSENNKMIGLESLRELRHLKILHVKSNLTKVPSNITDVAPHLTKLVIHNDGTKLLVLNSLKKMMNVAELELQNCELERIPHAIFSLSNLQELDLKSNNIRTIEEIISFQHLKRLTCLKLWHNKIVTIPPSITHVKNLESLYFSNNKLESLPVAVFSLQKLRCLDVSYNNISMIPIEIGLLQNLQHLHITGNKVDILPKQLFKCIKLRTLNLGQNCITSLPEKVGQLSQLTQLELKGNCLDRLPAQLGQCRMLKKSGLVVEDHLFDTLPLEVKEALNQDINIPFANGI
UniProt P20700: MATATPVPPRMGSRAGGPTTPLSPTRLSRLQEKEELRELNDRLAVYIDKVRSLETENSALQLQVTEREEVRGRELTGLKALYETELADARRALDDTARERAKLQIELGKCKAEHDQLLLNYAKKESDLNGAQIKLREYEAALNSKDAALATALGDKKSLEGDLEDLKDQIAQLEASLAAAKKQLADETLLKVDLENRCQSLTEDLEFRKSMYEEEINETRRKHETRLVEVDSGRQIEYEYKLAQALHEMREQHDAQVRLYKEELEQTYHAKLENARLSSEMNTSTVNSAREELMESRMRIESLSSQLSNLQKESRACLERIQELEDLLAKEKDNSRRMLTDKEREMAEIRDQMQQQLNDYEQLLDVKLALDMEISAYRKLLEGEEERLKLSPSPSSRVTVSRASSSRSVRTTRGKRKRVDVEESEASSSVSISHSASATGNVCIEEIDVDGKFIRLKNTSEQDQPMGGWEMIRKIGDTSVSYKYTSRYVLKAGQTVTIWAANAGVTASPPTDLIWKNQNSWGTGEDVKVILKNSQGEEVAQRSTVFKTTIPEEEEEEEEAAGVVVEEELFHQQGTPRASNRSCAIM
UniProt Q9Y333: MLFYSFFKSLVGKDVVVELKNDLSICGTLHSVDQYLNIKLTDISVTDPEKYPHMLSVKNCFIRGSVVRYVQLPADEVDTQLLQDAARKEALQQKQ
UniProt Q9NUN5: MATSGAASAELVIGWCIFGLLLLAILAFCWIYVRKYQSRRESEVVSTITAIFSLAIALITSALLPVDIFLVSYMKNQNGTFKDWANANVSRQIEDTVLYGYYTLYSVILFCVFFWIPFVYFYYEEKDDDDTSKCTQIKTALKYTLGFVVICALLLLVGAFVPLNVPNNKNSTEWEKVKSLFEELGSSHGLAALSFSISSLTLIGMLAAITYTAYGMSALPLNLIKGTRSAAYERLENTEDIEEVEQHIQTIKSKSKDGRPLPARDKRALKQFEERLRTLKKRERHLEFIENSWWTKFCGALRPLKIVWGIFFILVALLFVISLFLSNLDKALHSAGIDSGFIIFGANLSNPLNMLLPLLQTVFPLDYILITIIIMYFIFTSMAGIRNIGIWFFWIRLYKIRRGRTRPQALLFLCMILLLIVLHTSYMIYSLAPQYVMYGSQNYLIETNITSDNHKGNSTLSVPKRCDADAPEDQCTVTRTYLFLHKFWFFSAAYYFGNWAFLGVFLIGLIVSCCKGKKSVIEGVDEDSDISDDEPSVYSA
UniProt Q9C099: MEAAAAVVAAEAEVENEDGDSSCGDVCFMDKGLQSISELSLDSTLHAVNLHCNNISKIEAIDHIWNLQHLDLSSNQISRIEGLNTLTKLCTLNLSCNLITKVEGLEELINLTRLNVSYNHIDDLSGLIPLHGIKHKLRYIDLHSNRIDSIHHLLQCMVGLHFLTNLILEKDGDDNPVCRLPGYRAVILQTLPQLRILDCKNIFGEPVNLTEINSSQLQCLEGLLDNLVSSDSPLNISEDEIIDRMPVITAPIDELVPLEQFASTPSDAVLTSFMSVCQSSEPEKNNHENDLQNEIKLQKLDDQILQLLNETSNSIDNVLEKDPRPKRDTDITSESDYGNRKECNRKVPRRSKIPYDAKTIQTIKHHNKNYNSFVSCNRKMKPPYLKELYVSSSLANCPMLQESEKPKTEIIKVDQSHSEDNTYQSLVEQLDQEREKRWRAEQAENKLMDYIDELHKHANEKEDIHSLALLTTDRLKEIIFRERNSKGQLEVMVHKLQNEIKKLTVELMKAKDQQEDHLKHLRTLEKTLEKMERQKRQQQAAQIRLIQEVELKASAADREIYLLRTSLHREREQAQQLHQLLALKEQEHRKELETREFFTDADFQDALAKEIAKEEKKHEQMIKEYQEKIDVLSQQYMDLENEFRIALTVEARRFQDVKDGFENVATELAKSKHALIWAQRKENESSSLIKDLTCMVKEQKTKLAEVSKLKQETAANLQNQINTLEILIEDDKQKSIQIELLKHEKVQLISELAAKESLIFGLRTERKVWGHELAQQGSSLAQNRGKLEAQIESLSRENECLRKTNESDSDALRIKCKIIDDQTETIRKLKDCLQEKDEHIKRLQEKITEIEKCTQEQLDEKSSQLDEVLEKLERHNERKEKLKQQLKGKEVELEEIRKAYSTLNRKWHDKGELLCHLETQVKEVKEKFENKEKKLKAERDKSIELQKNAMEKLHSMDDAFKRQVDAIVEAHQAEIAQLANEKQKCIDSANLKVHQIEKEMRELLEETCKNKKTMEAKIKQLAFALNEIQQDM
UniProt Q9C0E8: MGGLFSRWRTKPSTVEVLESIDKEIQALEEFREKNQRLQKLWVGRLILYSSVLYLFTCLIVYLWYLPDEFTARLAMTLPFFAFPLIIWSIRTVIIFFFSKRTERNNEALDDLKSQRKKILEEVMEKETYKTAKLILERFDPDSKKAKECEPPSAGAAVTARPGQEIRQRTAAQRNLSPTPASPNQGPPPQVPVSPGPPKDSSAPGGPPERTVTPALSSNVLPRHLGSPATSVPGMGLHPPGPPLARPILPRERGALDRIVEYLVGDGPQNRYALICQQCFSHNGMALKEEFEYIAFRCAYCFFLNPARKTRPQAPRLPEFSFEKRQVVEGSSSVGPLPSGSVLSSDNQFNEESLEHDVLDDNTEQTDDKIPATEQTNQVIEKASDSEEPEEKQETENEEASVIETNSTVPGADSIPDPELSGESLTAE

Compound: NC(=O)c1cnc(N[C@@H]2CCCC[C@@H]2N)nc1Nc1cccc(-n2nccn2)c1
Test: log2 fold change, soluble protein after heating vs DMSO (PISA); higher = thermal stabilisation; K562 lysate, 10 uM; active = over 0.2 and 3.5 SD of the protein, either way, in both replicates (recomputed)
Outline: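 K562 pellets were dounce-homogenised in PBS pH 7.4 containing 1 mM MgCl2, and the crude extract, at 1 mg/mL protein, was exposed to 10 μM compound for 30 min. Aliquots were heated for 3 min across 48°C-58°C, pooled, brought to 0.5% NP-40 at 4°C and spun at 21,000xg for 90 min, with the supernatant taken as soluble protein. TMTpro 16plex LC-MS/MS with equalised channel sums quantified that protein. Values are log-two fold changes in thermal stability relative to solvent controls, taken from duplicates.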

log2 fold change, inactive:
LRPPRC (UniProt P42704) 0.047
LETMD1 isoform 7 (UniProt Q6P1Q0) 0.009
LARS2 (UniProt Q15031) 0.044
LMNB2 (UniProt Q03252) 0.02
LCLAT1 (UniProt Q6UWP7) 0.037
LEO1 (UniProt Q8WVC0) 0
LCMT2 (UniProt O60294) -0.004
LRRC8B (UniProt Q6P9F7) 0.215
LCMT1 (UniProt Q9UIC8) 0.016
LRBA, A0A494BZW2 -0.031
LMO2 isoform 3 (UniProt P25791) -0.021
LRRC8C (UniProt Q8TDW0) -0.049
LDAH isoform 2 (UniProt Q9H6V9) -0.009
LMAN2L isoform 2 (UniProt Q9H0V9) 0.001
LRCH4 (UniProt O75427) -0.022
LCP2 (UniProt Q13094) 0.004
LAS1L (UniProt Q9Y4W2) 0.044
LRWD1 (UniProt Q9UFC0) 0.017
LSM14B isoform 2 (UniProt Q9BX40) 0.032
LGALS8 isoform 2 (UniProt O00214) -0.005
LIMD1 (UniProt Q9UGP4) -0.004
LDHA isoform 3 (UniProt P00338) -0.024
LIN7C (UniProt Q9NUP9) 0.007
LRRC8D (UniProt Q7L1W4) 0.031
LIMA1 isoform 4 (UniProt Q9UHB6) 0.017
LRRC57 (UniProt Q8N9N7) 0.014
LMAN1 (UniProt P49257) -0.003
LMNB1 (UniProt P20700) -0.004
LSM2 (UniProt Q9Y333) -0.027
LINS1 (UniProt Q8NG48) 0.009
LIG1 (UniProt P18858) 0.015
LMBRD1 (UniProt Q9NUN5) 0.061
LRRCC1 (UniProt Q9C099) -0.104
LRCH3 (UniProt Q96II8) 0.011
LIG4 (UniProt P49917) -0.045
LRRC59 (UniProt Q96AG4) -0.001
LSR (UniProt Q86X29) 0.001
LIN9 isoform 2 (UniProt Q5TKA1) -0.093
LNPK (UniProt Q9C0E8) 0.009

Reprinted at random: 3 records from the list
log2 fold change, inactive:
LRWD1 (UniProt Q9UFC0) 0.017
LNPK (UniProt Q9C0E8) 0.009
LRRC8C (UniProt Q8TDW0) -0.049
